# This is one part of the list.
# What was measured:
# Test in all cases: glycan array binding signal (z-score within array); higher = stronger binding
# Conditions in all cases: glycan notation: IUPAC condensed, linker removed
# [1] = target: Neu5Ac(a2-3)Gal(b1-4)GlcNAc(b1-6)GalNAc
# Summary of the method: (§1)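 From the Consortium for Functional Glycomics database, 3228 arrays were curated, keeping only those whose protein sequence was available. Binding is given as a within-array Z-score averaged across arrays sharing a protein sequence and across linkers. Negative Z-scores can be read as non-binding.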
# [2] = target: Neu5Ac(a2-3)Gal(b1-4)GlcNAc(b1-6)[Gal(b1-3)]GalNAc
# Summary of the method: as §1
# [3] = target: Neu5Ac(a2-3)Gal(b1-4)GlcNAc(b1-6)[Neu5Ac(a2-3)Gal(b1-3)]GalNAc
# Summary of the method: as §1
# [4] = target: Neu5Ac(a2-3)Gal(b1-4)GlcNAc6S
# Summary of the method: as §1
# [5] = target: Neu5Ac(a2-3)Gal(b1-4)[Fuc(a1-3)]GlcNAc
# Summary of the method: as §1
# [6] = target: Neu5Ac(a2-3)Gal(b1-4)[Fuc(a1-3)]GlcNAc(b1-2)Man
# Summary of the method: as §1
# [7] = target: Neu5Ac(a2-3)Gal(b1-4)[Fuc(a1-3)]GlcNAc(b1-3)Gal
# Summary of the method: as §1
# [8] = target: Neu5Ac(a2-3)Gal(b1-4)[Fuc(a1-3)]GlcNAc(b1-3)Gal(b1-4)GlcNAc
# Summary of the method: as §1
# [9] = target: Neu5Ac(a2-3)Gal(b1-4)[Fuc(a1-3)]GlcNAc(b1-3)Gal(b1-4)[Fuc(a1-3)]GlcNAc(b1-3)Gal(b1-4)[Fuc(a1-3)]GlcNAc
# Summary of the method: as §1
# [10] = target: Neu5Ac(a2-3)Gal(b1-4)[Fuc(a1-3)]GlcNAc(b1-3)GalNAc
# Summary of the method: as §1
# [11] = target: Neu5Ac(a2-3)Gal(b1-4)[Fuc(a1-3)]GlcNAc(b1-6)[Gal(b1-3)]GalNAc
# Summary of the method: as §1
# [12] = target: Neu5Ac(a2-3)Gal(b1-4)[Fuc(a1-3)]GlcNAc(b1-6)[Neu5Ac(a2-3)Gal(b1-3)]GalNAc
# Summary of the method: as §1
# [13] = target: Neu5Ac(a2-3)Gal(b1-4)[Fuc(a1-3)]GlcNAc6S
# Summary of the method: as §1
# [14] = target: Neu5Ac(a2-3)Gal6S(b1-4)GlcNAc
# Summary of the method: as §1
# [15] = target: Neu5Ac(a2-3)Gal6S(b1-4)[Fuc(a1-3)]GlcNAc
# Summary of the method: as §1
# [16] = target: Neu5Ac(a2-3)GalNAc
# Summary of the method: as §1
# [17] = target: Neu5Ac(a2-3)GalNAc(b1-4)GlcNAc
# Summary of the method: as §1
# [18] = target: Neu5Ac(a2-3)[GalNAc(b1-4)]Gal(b1-4)Glc
# Summary of the method: as §1
# [19] = target: Neu5Ac(a2-3)[GalNAc(b1-4)]Gal(b1-4)GlcNAc
# Summary of the method: as §1
# [20] = target: Neu5Ac(a2-3)[GalNAc(b1-4)]Gal(b1-4)GlcNAc(b1-3)GalNAc
# Summary of the method: as §1
# [21] = target: Neu5Ac(a2-3)[Neu5Ac(a2-6)]GalNAc
# Summary of the method: as §1
# [22] = target: Neu5Ac(a2-6)Gal
# Summary of the method: as §1
# [23] = target: Neu5Ac(a2-6)Gal(b1-3)GlcNAc(b1-3)[Gal(b1-4)GlcNAc(b1-6)]Gal(b1-4)Glc
# Summary of the method: as §1
# [24] = target: Neu5Ac(a2-6)Gal(b1-4)Glc
# Summary of the method: as §1
# [25] = target: Neu5Ac(a2-6)Gal(b1-4)GlcNAc
# Summary of the method: as §1
# [26] = target: Neu5Ac(a2-6)Gal(b1-4)GlcNAc(b1-2)Man
# Summary of the method: as §1
# [27] = target: Neu5Ac(a2-6)Gal(b1-4)GlcNAc(b1-2)Man(a1-3)Man(b1-4)GlcNAc(b1-4)GlcNAc
# Summary of the method: as §1
# [28] = target: Neu5Ac(a2-6)Gal(b1-4)GlcNAc(b1-2)Man(a1-3)[Gal(b1-4)GlcNAc(b1-2)Man(a1-6)]Man(b1-4)GlcNAc(b1-4)GlcNAc
# Summary of the method: as §1
# [29] = target: Neu5Ac(a2-6)Gal(b1-4)GlcNAc(b1-2)Man(a1-3)[GlcNAc(b1-2)Man(a1-6)]Man(b1-4)GlcNAc(b1-4)GlcNAc
# Summary of the method: as §1
# [30] = target: Neu5Ac(a2-6)Gal(b1-4)GlcNAc(b1-2)Man(a1-3)[GlcNAc(b1-4)][Neu5Ac(a2-6)Gal(b1-4)GlcNAc(b1-2)Man(a1-6)]Man(b1-4)GlcNAc(b1-4)GlcNAc
# Summary of the method: as §1
# [31] = target: Neu5Ac(a2-6)Gal(b1-4)GlcNAc(b1-2)Man(a1-3)[Man(a1-6)]Man(b1-4)GlcNAc(b1-4)GlcNAc
# Summary of the method: as §1
# [32] = target: Neu5Ac(a2-6)Gal(b1-4)GlcNAc(b1-2)Man(a1-3)[Neu5Ac(a2-3)Gal(b1-4)GlcNAc(b1-2)Man(a1-6)]Man(b1-4)GlcNAc(b1-4)GlcNAc
# Summary of the method: as §1
# [33] = target: Neu5Ac(a2-6)Gal(b1-4)GlcNAc(b1-2)Man(a1-3)[Neu5Ac(a2-6)Gal(b1-4)GlcNAc(b1-2)Man(a1-6)]Man(b1-4)GlcNAc(b1-4)GlcNAc
# Summary of the method: as §1
# [34] = target: Neu5Ac(a2-6)Gal(b1-4)GlcNAc(b1-2)Man(a1-3)[Neu5Ac(a2-6)Gal(b1-4)GlcNAc(b1-2)Man(a1-6)]Man(b1-4)GlcNAc(b1-4)[Fuc(a1-6)]GlcNAc
# Summary of the method: as §1
# [35] = target: Neu5Ac(a2-6)Gal(b1-4)GlcNAc(b1-2)Man(a1-6)Man(b1-4)GlcNAc(b1-4)GlcNAc
# Summary of the method: as §1
# [36] = target: Neu5Ac(a2-6)Gal(b1-4)GlcNAc(b1-2)Man(a1-6)[Gal(b1-4)GlcNAc(b1-2)Man(a1-3)]Man(b1-4)GlcNAc(b1-4)GlcNAc
# Summary of the method: as §1
# [37] = target: Neu5Ac(a2-6)Gal(b1-4)GlcNAc(b1-2)Man(a1-6)[GlcNAc(b1-2)Man(a1-3)]Man(b1-4)GlcNAc(b1-4)GlcNAc
# Summary of the method: as §1
# [38] = target: Neu5Ac(a2-6)Gal(b1-4)GlcNAc(b1-2)Man(a1-6)[Man(a1-3)]Man(b1-4)GlcNAc(b1-4)GlcNAc
# Summary of the method: as §1
# [39] = target: Neu5Ac(a2-6)Gal(b1-4)GlcNAc(b1-2)[Neu5Ac(a2-6)Gal(b1-4)GlcNAc(b1-4)]Man(a1-3)[GlcNAc(b1-4)][Neu5Ac(a2-6)Gal(b1-4)GlcNAc(b1-2)[Neu5Ac(a2-6)Gal(b1-4)GlcNAc(b1-6)]Man(a1-6)]Man(b1-4)GlcNAc(b1-4)GlcNAc
# Summary of the method: as §1
# [40] = target: Neu5Ac(a2-6)Gal(b1-4)GlcNAc(b1-2)[Neu5Ac(a2-6)Gal(b1-4)GlcNAc(b1-4)]Man(a1-3)[GlcNAc(b1-4)][Neu5Ac(a2-6)Gal(b1-4)GlcNAc(b1-4)Man(a1-6)]Man(b1-4)GlcNAc(b1-4)GlcNAc
# Summary of the method: as §1
# [41] = target: Neu5Ac(a2-6)Gal(b1-4)GlcNAc(b1-2)[Neu5Ac(a2-6)Gal(b1-4)GlcNAc(b1-6)]Man(a1-6)[Neu5Ac(a2-6)Gal(b1-4)GlcNAc(b1-2)Man(a1-3)][GlcNAc(b1-4)]Man(b1-4)GlcNAc(b1-4)GlcNAc
# Summary of the method: as §1
# [42] = target: Neu5Ac(a2-6)Gal(b1-4)GlcNAc(b1-3)Gal(b1-3)GlcNAc
# Summary of the method: as §1
# [43] = target: Neu5Ac(a2-6)Gal(b1-4)GlcNAc(b1-3)Gal(b1-4)GlcNAc
# Summary of the method: as §1
# [44] = target: Neu5Ac(a2-6)Gal(b1-4)GlcNAc(b1-3)Gal(b1-4)GlcNAc(b1-2)Man(a1-3)[Neu5Ac(a2-6)Gal(b1-4)GlcNAc(b1-3)Gal(b1-4)GlcNAc(b1-2)Man(a1-6)]GalNAc
# Summary of the method: as §1
# [45] = target: Neu5Ac(a2-6)Gal(b1-4)GlcNAc(b1-3)Gal(b1-4)GlcNAc(b1-3)Gal(b1-4)GlcNAc
# Summary of the method: as §1
# [46] = target: Neu5Ac(a2-6)Gal(b1-4)GlcNAc(b1-3)Gal(b1-4)GlcNAc(b1-3)Gal(b1-4)GlcNAc(b1-2)Man(a1-3)[Neu5Ac(a2-6)Gal(b1-4)GlcNAc(b1-3)Gal(b1-4)GlcNAc(b1-3)Gal(b1-4)GlcNAc(b1-2)Man(a1-6)]GalNAc
# Summary of the method: as §1
binder,measurement,setting,value
"Thrombomodulin Extracellular (Mus musculus), P15306 (protein) MLGIFFLGVLAPASLGLSALAKLQPTGSQCVEHECFALFQGPATFLDASQACQRLQGHLMTVRSSVAADVISLLLSQSSMDLGPWIGLQLPQGCDDPVHLGPLRGFQWVTGDNHTSYSRWARPNDQTAPLCGPLCVTVSTATEAAPGEPAWEEKPCETETQGFLCEFYFTASCRPLTVNTRDPEAAHISSTYNTPFGVSGADFQTLPVGSSAAVEPLGLELVCRAPPGTSEGHWAWEATGAWNCSVENGGCEYLCNRSTNEPRCLCPRDMDLQADGRSCARPVVQSCNELCEHFCVSNAEVPGSYSCMCETGYQLAADGHRCEDVDDCKQGPNPCPQLCVNTKGGFECFCYDGYELVDGECVELLDPCFGSNCEFQCQPVSPTDYRCICAPGFAPKPDEPHKCEMFCNETSCPADCDPNSPTVCECPEGFILDEGSVCTDIDECSQGECFTSECRNFPGSYECICGPDTALAGQISKDCDPIPVREDTKEEEGSGEPPVSPTPGSPTGPPSARPVHSGVLIGISIASLSLVVALLALLCHLRKKQGAARAELEYKCASSAKEVVLQHVRTDRTLQKF",glycan array binding signal (z-score),[1],0.353
same,glycan array binding signal (z-score),[2],0.65
same,glycan array binding signal (z-score),[3],0.2
same,glycan array binding signal (z-score),[4],-0.748
same,glycan array binding signal (z-score),[5],-0.322
same,glycan array binding signal (z-score),[6],-1.17
same,glycan array binding signal (z-score),[7],0.119
same,glycan array binding signal (z-score),[8],0.865
same,glycan array binding signal (z-score),[9],-1.58
same,glycan array binding signal (z-score),[10],2.09
same,glycan array binding signal (z-score),[11],-0.283
same,glycan array binding signal (z-score),[12],0.974
same,glycan array binding signal (z-score),[13],-0.158
same,glycan array binding signal (z-score),[14],-0.167
same,glycan array binding signal (z-score),[15],-1.88
same,glycan array binding signal (z-score),[16],-1.59
same,glycan array binding signal (z-score),[17],-0.009
same,glycan array binding signal (z-score),[18],0.754
same,glycan array binding signal (z-score),[19],-0.842
same,glycan array binding signal (z-score),[20],0.896
same,glycan array binding signal (z-score),[21],0.585
same,glycan array binding signal (z-score),[22],-0.681
same,glycan array binding signal (z-score),[23],-1.79
same,glycan array binding signal (z-score),[24],-0.597
same,glycan array binding signal (z-score),[25],0.191
same,glycan array binding signal (z-score),[26],-0.589
same,glycan array binding signal (z-score),[27],1.57
same,glycan array binding signal (z-score),[28],-0.047
same,glycan array binding signal (z-score),[29],-0.244
same,glycan array binding signal (z-score),[30],0.188
same,glycan array binding signal (z-score),[31],2.56
same,glycan array binding signal (z-score),[32],-0.885
same,glycan array binding signal (z-score),[33],0.407
same,glycan array binding signal (z-score),[34],1.7
same,glycan array binding signal (z-score),[35],1.23
same,glycan array binding signal (z-score),[36],0.959
same,glycan array binding signal (z-score),[37],0.976
same,glycan array binding signal (z-score),[38],-0.419
same,glycan array binding signal (z-score),[39],-0.697
same,glycan array binding signal (z-score),[40],1.28
same,glycan array binding signal (z-score),[41],-0.375
same,glycan array binding signal (z-score),[42],-0.789
same,glycan array binding signal (z-score),[43],-0.733
same,glycan array binding signal (z-score),[44],1.96
same,glycan array binding signal (z-score),[45],-0.19
same,glycan array binding signal (z-score),[46],1.73

# A second format for some results above.
binder	measurement	setting	value
Thrombomodulin Extracellular (Mus musculus), P15306 (protein) MLGIFFLGVLAPASLGLSALAKLQPTGSQCVEHECFALFQGPATFLDASQACQRLQGHLMTVRSSVAADVISLLLSQSSMDLGPWIGLQLPQGCDDPVHLGPLRGFQWVTGDNHTSYSRWARPNDQTAPLCGPLCVTVSTATEAAPGEPAWEEKPCETETQGFLCEFYFTASCRPLTVNTRDPEAAHISSTYNTPFGVSGADFQTLPVGSSAAVEPLGLELVCRAPPGTSEGHWAWEATGAWNCSVENGGCEYLCNRSTNEPRCLCPRDMDLQADGRSCARPVVQSCNELCEHFCVSNAEVPGSYSCMCETGYQLAADGHRCEDVDDCKQGPNPCPQLCVNTKGGFECFCYDGYELVDGECVELLDPCFGSNCEFQCQPVSPTDYRCICAPGFAPKPDEPHKCEMFCNETSCPADCDPNSPTVCECPEGFILDEGSVCTDIDECSQGECFTSECRNFPGSYECICGPDTALAGQISKDCDPIPVREDTKEEEGSGEPPVSPTPGSPTGPPSARPVHSGVLIGISIASLSLVVALLALLCHLRKKQGAARAELEYKCASSAKEVVLQHVRTDRTLQKF	glycan array binding signal (z-score)	[14]	-0.167
same	glycan array binding signal (z-score)	[15]	-1.88
same	glycan array binding signal (z-score)	[16]	-1.59
same	glycan array binding signal (z-score)	[17]	-0.009

# Reference: the supplement of paper PMC8728848
